Results on 2 substances are retold here after paper doi:10.1101/726521.

Sequences of proteins named here, by UniProt entry; tags and fusion partners are left off. A change or cut given only in a name is not applied to a line headed by its entry. Residues count along the entry.
MSL10_(553-734)-YN, soluble C-terminus of MSL10 (BiFC fusion) (Q9LYG9, residues 553-734): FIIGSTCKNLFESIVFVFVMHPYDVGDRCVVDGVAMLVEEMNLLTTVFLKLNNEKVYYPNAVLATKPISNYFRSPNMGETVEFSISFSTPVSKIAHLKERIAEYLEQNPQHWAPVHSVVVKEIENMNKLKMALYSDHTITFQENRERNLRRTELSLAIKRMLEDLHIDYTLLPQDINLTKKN

In assay [1] the target is MSL10_(553-734), soluble C-terminus of MSL10, split-ubiquitin fusion (Arabidopsis thaliana) (UniProt Q9LYG9). The assay can be described thus: two-hybrid.
Assay [2] concerns the target MSL10^S640L_(553-734), soluble C-terminus of MSL10 with the S640L lesion, split-ubiquitin fusion (Arabidopsis thaliana) (UniProt Q9LYG9). The assay can be described thus: two-hybrid.
For assay [3], the target named is MSL10_(553-734)-YN, soluble C-terminus of MSL10 (BiFC fusion) (Arabidopsis thaliana) (UniProt Q9LYG9). The assay can be described thus: split reporter.

No constants are given. Whether binding was seen depends on the method and setting. Binding can be weak; no strength is given. For part of these data: In cells and extracts the contact can be indirect.

For the substance “MSL10_(1-460) with phospho-dead residues, split-ubiquitin fusion (from UniProt Q9LYG9) (domain or fragment)”, the binding entry in assay [1] and in assay [2] was “binds” throughout.

“MSL10 N-terminal sequence (1-460) with phospho-dead lesions (BiFC fusion) (from UniProt Q9LYG9) (domain or fragment)”: the binding entry in assay [3] is recorded as “binds”.
